The list shows a part of the results.
Each molecule was assayed on T1, CTL2-GFP (C. trachomatis L2/434/Bu, GFP-expressing). Settings: bulk GFP, single well; 28.5 h, 10 µM; inhibitor.
T1 construct: L2/434/Bu, GFP-expressing
Set-up: species or system HeLa; Intracellular C. trachomatis growth in HeLa cells, bulk GFP fluorescence relative to DMSO

SMILES	% of control remaining
CCN(CC)CCCNc1nccc(-c2cn(C)nc2C)n1 [CBK306654]	95.1467%
O=c1c2[nH]c3ccccc3c2ncn1Cc1ccccc1 [CBK287809]	114.624%
Cc1nccn1CC1(O)CCN(C(=O)C(C)c2ccccc2)CC1 (stereo not shown) [CBK285388]	105.354%
O=S(=O)(c1ccc(Cl)cc1)N1CCN(CC(O)Cn2c3ccccc3c3ccccc32)CC1 (stereo not shown) [CBK264383]	113.289%
Cc1cc(NC(=O)c2cc(Cl)ccc2[N+](=O)[O-])nc2c1c(=O)oc1ccccc12 [CBK291248]	131.512%
COc1cccc([C@H]2CN(C(C)=O)[C@@H]3CCN(C4CCCC4)C[C@H]23)c1 [CBK283375]	139.802%
CC(=O)N1CCCc2cc(C(O)CN3CCCC(C)C3)ccc21 (stereo not shown) [CBK282142]	148.106%
CCCCCCN1CCN(c2nccn(CCOc3cc(F)c(F)cc3F)c2=O)CC1 [CBK045889C]	118.683%
O=C(NCc1ccccc1)c1ccc(N2CCOCC2)nc1 [CBK200244]	179.531%
CSCCC(C(=O)O)N1C(=O)c2ccccc2C1=O (stereo not shown) [CBK218448]	92.7144%
Cc1cc(C)c2c(N)c(C(=O)Nc3ccc(Br)cc3)sc2n1 [CBK072019]	49.542%
CC(Sc1ncc(-c2ccc(F)cc2)n1Cc1ccccc1)C(=O)NC1CC1 (stereo not shown) [CBK297105]	82.6703%
CCN1CCN(c2nccnc2OCc2cccnc2)CC1 [CBK083142]	87.9166%
O=C(CN1C(=O)N2CCN=C2c2ccc(Cl)cc21)NCC1CC1 [CBK282877]	112.145%
COc1ccc(OC)c(NC(=O)CC2NCCNC2=O)c1 (stereo not shown) [CBK266477]	103.291%
O=C(CSc1nnc2ccccn12)Nc1ccccc1 [CBK287328]	93.5926%
CCOc1cc(CN2CCN(C/C=C/c3ccccc3)CC2)ccc1OC [CBK261573]	110.719%
COc1ccccc1-c1ccc(CC2(C(=O)NC3CCCCC3)CCOCC2)cc1 [CBK286515]	109.543%
COc1cc(CNc2nc[nH]n2)ccc1OCc1ccc(C)cc1 [CBK269768]	94.9267%
Fc1ccc(-c2nccnc2OCc2ccc3c(c2)OCO3)cc1 [CBK106896]	121.284%
CC(C(=O)NC1(C#N)CCCCC1)N1CCOC(Cn2cccn2)C1 (stereo not shown) [CBK305337]	120.051%
COc1ccc(CSCc2n[nH]c(=O)[nH]2)cc1[N+](=O)[O-] [CBK267425]	126.757%
COC[C@H]1CCCN1C(=O)Cn1[nH]c(C)c(Cc2c(Cl)cccc2Cl)c1=O [CBK115407]	99.9077%
CCOC(=O)c1sc(-c2cccc(C(F)(F)F)c2)nc1O [CBK075064]	89.3842%
COc1ccc(-c2csc(NC(=O)C(C)C)c2C(=O)O)cc1 [CBK286622]	133.192%
FC(F)(F)c1ccc2c(c1)N(CCCN1CCN(C34CC5CC(CC(C5)C3)C4)CC1)c1ccccc1S2 [CBK261938]	126.833%
C=CCn1cc(CN2CCC(O)(c3ccccc3C)CC2)c(C)n1 [CBK282581]	115.27%

Two entries from above, field by field.
COc1cccc([C@H]2CN(C(C)=O)[C@@H]3CCN(C4CCCC4)C[C@H]23)c1 [CBK283375]
  % of control remaining: 139.802%
CCN1CCN(c2nccnc2OCc2cccnc2)CC1 [CBK083142]
  % of control remaining: 87.9166%

Additional entries follow:

SMILES	% of control remaining
c1csc(CNc2cncc(-c3ccncc3)n2)c1 [CBK065238]	104.82%
CC(C)n1cccc1CN[C@@H]1CCC(=O)N[C@H]1c1cccc(F)c1 [CBK282908]	100.952%
COCCCNC(=O)Cn1c(-c2ccc(F)cc2)cc2cccnc21 [CBK285385]	106.533%
N#CCCn1cc(C(=O)n2nnc3ccccc32)c(-c2cc3ccccc3o2)n1 [CBK268073]	105.165%
COc1ccc(C(=O)OC(C)(C)C)c(-c2nccnc2N2CCCN(C)CC2)c1 [CBK037360]	193.806%
Cc1csc2ncc(C(=O)NCc3ccccc3)c(=O)n12 [CBK287290]	92.2193%
COc1ccc(S(=O)(=O)Nc2ccccc2C(=O)O)cc1C(=O)O [CBK264084]	126.197%
NC(=O)COc1cccc(/C=C2/SC(Nc3cccc(C(=O)O)c3)=NC2=O)c1 [CBK265027]	97.969%
Cn1c(C(=O)NC2CCOC(C)(C)C2)cc2ccccc21 (stereo not shown) [CBK304344]	120.098%
CSCCC(=O)NCc1ccc(-c2csnn2)cc1 [CBK149304]	115.963%
C/C(=N\NC(=O)CCC(=O)Nc1ccc(I)cc1)c1ccc(O)cc1O [CBK261971]	109.369%
CCn1cnc2sc(-c3ccccc3)cc2c1=O [CBK287952]	158.387%
Cc1csc2[nH]c(C(C)(C)C)c[n+]12 [CBK025384B]	106.481%
CCn1c(N2CCC(C(=O)NC(C)C)CC2)nc2ccccc21 [CBK283982]	134.012%
O=C(NCc1nnc(-c2cccs2)o1)c1cccc(F)c1F [CBK284634]	94.4752%
N#CC1C(=S)NC2=C(CCCC2)C12CCCCC2 (stereo not shown) [CBK288493]	90.7956%
OCCN(Cc1cccs1)Cc1c[nH]nc1-c1cccs1 [CBK282599]	112.557%
COc1cc(/C=C/CN2CCC(C(=O)NC(C)c3ccc(F)cc3)CC2)ccc1OC(C)=O (stereo not shown) [CBK148061]	100%
CC(=O)N1CCc2c([nH]c3ccccc23)[C@@]12CCN(Cc1ccc(F)cc1)C2 [CBK074955]	119.257%
Cc1nc2c(c(=O)[nH]1)CCN(Cc1cccc(Oc3ccccc3)c1)C2 [CBK283989]	127.907%
Cc1c(CN2CCC3(CC2)CC(c2ccccc2)CN(C)C3)cnn1C (stereo not shown) [CBK306666]	122.75%
Cc1ccc(N(C(C)C(=O)Nc2ccccc2C(F)(F)F)S(C)(=O)=O)cc1 (stereo not shown) [CBK268796]	117.205%
O=C(NCc1ccncc1)c1ncoc1-c1ccc(F)cc1 [CBK282354]	150.479%
COc1ccccc1OCCOc1c(Cl)cc(/C=C2\SC(=S)NC2=O)cc1Cl [CBK264848]	129.637%
CCn1c(=O)n(CC(=O)NCc2ccccc2F)c2cccnc21 [CBK283890]	119.652%
O=C1N(Cc2cccc3ccccc23)c2ccccc2C1(c1ccc(O)cc1)c1ccc(O)cc1 [CBK261410]	67.1065%
O=C(N[C@@H](Cn1cc(Cl)c(=O)[nH]c1=O)C(=O)O)C1CCCC1 [CBK289658]	133.063%

SMILES	% of control remaining
O=C(O)CCN1C(=O)c2ccc(Oc3ccc(NC(=O)c4ccc(Cl)c(Cl)c4)cc3)cc2C1=O [CBK267400]	136.843%
CCC(=O)N1CCCc2cc(C(O)CN3CCCC(C)C3)ccc21 (stereo not shown) [CBK283049]	119.959%
Cc1cccc(C(=O)Nc2cccc(OCC(=O)O)c2)c1 [CBK268599]	107.096%
CCCNC(=O)CN1CCC(NC(=O)Cn2cc(Br)ccc2=O)CC1 [CBK305665]	89.9022%
O=C(O)CC1SC(Nc2cccc(Cl)c2)=NC1=O (stereo not shown) [CBK131683]	117.051%
OC(CN1CCN(C(c2ccccc2)c2ccccc2)CC1)Cn1c2ccccc2c2ccccc21 (stereo not shown) [CBK262730]	56.5945%
O=C(CCn1cccn1)NC(Cc1ccsc1)c1cccnc1 (stereo not shown) [CBK285393]	123.778%
Cc1cc(NC(=O)c2nn3c(C(F)(F)F)cc(-c4ccccc4)nc3c2Cl)nn1CC(=O)N1CCOCC1 [CBK268209]	85.0568%
Clc1ccc(COc2cccc3cccnc23)cn1 [CBK002718]	91.7888%
CN(C)CCN(C)C(=O)c1ccc(-c2ccco2)nc1N(C)C [CBK106078]	113.687%
COc1ccc(CN(CCN(C)C)C(=O)NCc2ccc(Cl)cc2)cc1OC [CBK159303]	126.874%
O=C(NC[C@H]1O[C@@H](CC(=O)N2CCN(c3ccccc3)CC2)[C@H](O)[C@@H]1O)c1ccccc1 [CBK288920]	110.423%
O=C(NCCCN1CCCC1)Nc1ccccc1[N+](=O)[O-] [CBK267959]	137.399%
Cc1cc2c(N3CCN(Cc4nc5ccccc5[nH]4)CC3)ncnc2s1 [CBK268213C]	88.7485%
CC(C)[C@H](CO)Nc1nc(-c2ccc(N3CCOCC3)cc2)cn2ccnc12 [CBK066151]	109.613%
CCCNc1nc(-c2ccc(F)c(F)c2)cn2ccnc12 [CBK066573]	187.771%
N#Cc1ccccc1N1CCN(c2cncc(-c3cccs3)n2)CC1 [CBK065656]	125.308%
CCOc1ccc(NC(=O)C2CCC(C)(C(=O)O)C2(C)C)cc1 (stereo not shown) [CBK295665]	141.158%
CC(C)c1cccc2c1OC(C(C)C)C(=O)N2 (stereo not shown) [CBK009286]	113.234%
CN(C)C(=O)c1ccc(-c2ccc(COC3CCN(C(=O)Cc4ccc(F)cc4)CC3)c(S(C)(=O)=O)c2)cc1 [CBK155963]	106.293%
Nc1nc(SCC(=O)NCc2ccc3c(c2)OCO3)n[nH]1 [CBK266580]	167.117%
O=C(N/N=C/c1cccnc1)c1cccc(F)c1 [CBK261689]	95.0197%
COc1nccnc1OC1CCN(Cc2ccc(Cl)cc2)CC1 [CBK084240]	87.8614%
NS(=O)(=O)c1ccc(NC(=O)CC2SC(=O)NC2=O)cc1 (stereo not shown) [CBK263855]	96.6684%
COc1nccnc1N1CCN(CCOc2ccccc2)CC1 [CBK084230]	87.197%

Looked up above.
Under % of control remaining, COC[C@H]1CCCN1C(=O)Cn1[nH]c(C)c(Cc2c(Cl)cccc2Cl)c1=O [CBK115407] is entered as 99.9077%
Under % of control remaining, C=CCn1cc(CN2CCC(O)(c3ccccc3C)CC2)c(C)n1 [CBK282581] is entered as 115.27%

— article PMC12040169 (PLOS Biology, 2025)
